## Drug screen on melanoma cell lines: apoptosis marker

From a melanoma drug combination screen (doi:10.1371/journal.pone.0140310); values rounded.

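Human melanoma cell lines in 1,536-well plates were treated with a pair of drugs for 72 h, then fixed, stained and imaged. The read-out is the fraction of cleaved-PARP-positive nuclei, in % of that fraction in the DMSO control; 200 means twice the control level of this apoptosis marker. Concentrations were fixed for each drug; these are the higher of two levels. The file gives one value for each pair and line, without errors, so small differences may be noise. Basal and induced levels differ widely between cell lines.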
Only some of the drugs and lines screened are listed, without regard to their results.
An entry leaves out what has no value listed here.

Drug key:
U73122: COc1ccc2c(c1)CCC1C2CCC2(C)C(NCCCCCCN3C(=O)C=CC3=O)CCC12 (stereo unspecified) at 2 µM
GW9662: O=C(Nc1ccccc1)c1cc([N+](=O)[O-])ccc1Cl at 10 µM
vismodegib: CS(=O)(=O)c1ccc(C(=O)Nc2ccc(Cl)c(-c3ccccn3)c2)c(Cl)c1 at 5 µM
STA-4783: CN(NC(=O)CC(=O)NN(C)C(=S)c1ccccc1)C(=S)c1ccccc1 at 0.03 µM
MK-2206: NC1(c2ccc(-c3nc4ccn5c(=O)[nH]nc5c4cc3-c3ccccc3)cc2)CCC1 at 2 µM
LFM-A13: C/C(O)=C(\C#N)C(=O)Nc1cc(Br)ccc1Br at 10 µM
cisplatin: N.N.[Cl][Pt][Cl] at 8 µM
nutlin-3: COc1ccc(C2=N[C@@H](c3ccc(Cl)cc3)[C@@H](c3ccc(Cl)cc3)N2C(=O)N2CCNC(=O)C2)c(OC(C)C)c1 at 0.5 µM
BMS-536924: Cc1cc(N2CCOCC2)cc2[nH]c(-c3c(NC[C@@H](O)c4cccc(Cl)c4)cc[nH]c3=O)nc12 at 1 µM
YM155: COCC[n+]1c2c(n(Cc3cnccn3)c1C)C(=O)c1ccccc1C2=O at 0.002 µM

{"drugs": "GW9662 + MK-2206", "UACC-257": 61.4, "SK-MEL-2": 183, "501mel": 172, "WM3526": 298, "MeWo": 119, "RVH-421": 254}
{"drugs": "cisplatin + MK-2206", "UACC-257": 85.6, "SK-MEL-2": 103, "WM3526": 77.9, "MeWo": 108, "RVH-421": 37.4}
{"drugs": "MK-2206 + LFM-A13", "UACC-257": 53.3, "SK-MEL-2": 85.6, "501mel": 76.2, "WM3526": 144, "MeWo": 165, "RVH-421": 102}
{"drugs": "BMS-536924 + YM155", "UACC-257": 983, "SK-MEL-2": 1470, "WM3526": 3820, "MeWo": 786, "RVH-421": 177}
{"drugs": "BMS-536924 + cisplatin", "UACC-257": 385, "SK-MEL-2": 161, "WM3526": 104, "MeWo": 192, "RVH-421": 88.3}
{"drugs": "nutlin-3 + STA-4783", "UACC-257": 82.3, "SK-MEL-2": 86.0, "WM3526": 56.7, "MeWo": 680, "RVH-421": 122}
{"drugs": "STA-4783 + U73122", "UACC-257": 54.1, "SK-MEL-2": 97.4, "501mel": 82.4, "WM3526": 152, "MeWo": 80.4, "RVH-421": 92.8}
{"drugs": "GW9662 + STA-4783", "UACC-257": 58.1, "SK-MEL-2": 193, "501mel": 2140, "WM3526": 195, "MeWo": 541, "RVH-421": 197}
{"drugs": "YM155 + MK-2206", "UACC-257": 1230, "SK-MEL-2": 652, "WM3526": 1550, "MeWo": 498, "RVH-421": 136}
{"drugs": "nutlin-3 + LFM-A13", "UACC-257": 20.2, "SK-MEL-2": 68.4, "501mel": 40.0, "WM3526": 99.2, "MeWo": 39.3, "RVH-421": 125}
{"drugs": "STA-4783 + YM155", "UACC-257": 373, "SK-MEL-2": 97.2, "WM3526": 4410, "MeWo": 1740, "RVH-421": 82.3}
{"drugs": "STA-4783 + cisplatin", "UACC-257": 312, "SK-MEL-2": 109, "WM3526": 102, "MeWo": 143, "RVH-421": 71.6}
{"drugs": "STA-4783 + BMS-536924", "UACC-257": 214, "SK-MEL-2": 61.7, "WM3526": 62.8, "MeWo": 696, "RVH-421": 114}
{"drugs": "cisplatin + GW9662", "UACC-257": 361, "SK-MEL-2": 144, "501mel": 158, "WM3526": 247, "MeWo": 125, "RVH-421": 547}
{"drugs": "YM155 + LFM-A13", "UACC-257": 1280, "SK-MEL-2": 155, "501mel": 52.4, "WM3526": 291, "MeWo": 194, "RVH-421": 120}
{"drugs": "U73122 + BMS-536924", "UACC-257": 14.1, "SK-MEL-2": 231, "501mel": 101, "WM3526": 114, "MeWo": 135, "RVH-421": 40.6}
{"drugs": "cisplatin + nutlin-3", "UACC-257": 349, "SK-MEL-2": 97.3, "WM3526": 109, "MeWo": 27.9, "RVH-421": 82.5}
{"drugs": "cisplatin + vismodegib", "UACC-257": 191, "SK-MEL-2": 64.9, "WM3526": 116, "MeWo": 87.8, "RVH-421": 87.8}
{"drugs": "GW9662 + nutlin-3", "UACC-257": 79.1, "SK-MEL-2": 55.9, "501mel": 139, "WM3526": 99.8, "MeWo": 93.2, "RVH-421": 120}
{"drugs": "LFM-A13 + BMS-536924", "UACC-257": 43.2, "SK-MEL-2": 44.9, "501mel": 210, "WM3526": 97.4, "MeWo": 157, "RVH-421": 155}
{"drugs": "STA-4783 + LFM-A13", "UACC-257": 44.1, "SK-MEL-2": 235, "501mel": 418, "WM3526": 110, "MeWo": 344, "RVH-421": 184}
{"drugs": "STA-4783 + MK-2206", "UACC-257": 79.9, "SK-MEL-2": 18.6, "WM3526": 138, "MeWo": 1140, "RVH-421": 89.0}
{"drugs": "vismodegib + STA-4783", "UACC-257": 58.4, "SK-MEL-2": 62.2, "WM3526": 45.2, "MeWo": 1920, "RVH-421": 137}
{"drugs": "GW9662 + U73122", "UACC-257": 64.3, "SK-MEL-2": 135, "501mel": 129, "WM3526": 69.1, "MeWo": 160, "RVH-421": 376}
{"drugs": "vismodegib + LFM-A13", "UACC-257": 17.3, "SK-MEL-2": 105, "501mel": 87.5, "WM3526": 82.2, "MeWo": 88.2, "RVH-421": 191}
{"drugs": "U73122 + LFM-A13", "UACC-257": 143, "SK-MEL-2": 115, "501mel": 83.9, "WM3526": 77.4, "MeWo": 187, "RVH-421": 108}
{"drugs": "U73122 + nutlin-3", "UACC-257": 59.3, "SK-MEL-2": 73.1, "501mel": 128, "WM3526": 83.0, "MeWo": 53.7, "RVH-421": 257}
{"drugs": "YM155 + cisplatin", "UACC-257": 660, "SK-MEL-2": 447, "WM3526": 1230, "MeWo": 449, "RVH-421": 66.0}
{"drugs": "BMS-536924 + GW9662", "UACC-257": 24.9, "SK-MEL-2": 146, "501mel": 310, "WM3526": 71.4, "MeWo": 192, "RVH-421": 253}
{"drugs": "YM155 + U73122", "UACC-257": 1020, "SK-MEL-2": 141, "501mel": 65.3, "WM3526": 349, "MeWo": 56.4, "RVH-421": 121}
{"drugs": "MK-2206 + BMS-536924", "UACC-257": 94.6, "SK-MEL-2": 168, "WM3526": 283, "MeWo": 15.5, "RVH-421": 65.1}
{"drugs": "U73122 + cisplatin", "UACC-257": 171, "SK-MEL-2": 66.8, "501mel": 98.9, "WM3526": 183, "MeWo": 68.2, "RVH-421": 67.6}
{"drugs": "vismodegib + YM155", "UACC-257": 2340, "SK-MEL-2": 96.3, "WM3526": 850, "MeWo": 267, "RVH-421": 73.9}
{"drugs": "vismodegib + BMS-536924", "UACC-257": 58.3, "SK-MEL-2": 90.3, "WM3526": 178, "MeWo": 114, "RVH-421": 110}
{"drugs": "YM155 + GW9662", "UACC-257": 255, "SK-MEL-2": 384, "501mel": 140, "WM3526": 864, "MeWo": 804, "RVH-421": 211}
{"drugs": "nutlin-3 + YM155", "UACC-257": 1200, "SK-MEL-2": 806, "WM3526": 1230, "MeWo": 192, "RVH-421": 552}
{"drugs": "cisplatin + LFM-A13", "UACC-257": 207, "SK-MEL-2": 34.7, "501mel": 135, "WM3526": 122, "MeWo": 86.2, "RVH-421": 124}
{"drugs": "GW9662 + vismodegib", "UACC-257": 31.9, "SK-MEL-2": 204, "501mel": 129, "WM3526": 137, "MeWo": 116, "RVH-421": 266}
{"drugs": "GW9662 + LFM-A13", "UACC-257": 49.1, "SK-MEL-2": 365, "501mel": 162, "WM3526": 109, "MeWo": 163, "RVH-421": 117}

Some entries from above, unchanged:

{"drugs": "cisplatin + LFM-A13", "UACC-257": 207, "SK-MEL-2": 34.7, "501mel": 135, "WM3526": 122, "MeWo": 86.2, "RVH-421": 124}
{"drugs": "BMS-536924 + YM155", "UACC-257": 983, "SK-MEL-2": 1470, "WM3526": 3820, "MeWo": 786, "RVH-421": 177}
{"drugs": "cisplatin + MK-2206", "UACC-257": 85.6, "SK-MEL-2": 103, "WM3526": 77.9, "MeWo": 108, "RVH-421": 37.4}